PubChem BioAssay AID1259424 | University of Nebraska Medical Center, 2018

- Aim: 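Rank knockdowns across the genome by resemblance to the KSR1 depletion profile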 (primary screen)
- Cells: human HCT116 colon cancer cells
- Knock-down reagent: siRNA pool against human genes, 50 nM
- Measurement: 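Log2 levels of six mRNAs (branched-DNA multiplex), adjusted by two reference genes and the non-targeting median, then scored against the average KSR1 knockdown pattern as Pearson r and euclidean distance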
- Direction: mean correlation with KSR1 profile: higher = expression change more like KSR1 knockdown
Shown is one part, drawn at random, of about 14,000 reagents tested. 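Higher correlation or smaller distance means closer resemblance to KSR1 loss; control wells, including KSR1 knockdowns, recur on many plates.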 Reagents against one gene are numbered here. Some reagents were tested in more than one well and are listed for each. Not all columns of the deposit are shown. No sequences are given here. The record does not give: the time to read-out.

gene knocked down | pool no. | mean correlation with KSR1 profile
CAVIN3 (caveolae associated protein 3) | 1 | 0.215
PDCD6IP (programmed cell death 6 interacting protein) | 1 | -0.352
SNX24 (sorting nexin 24) | 1 | -0.288
ORMDL2 (ORMDL sphingolipid biosynthesis regulator 2) | 1 | 0.507
AQP8 (aquaporin 8) | 1 | -0.252
PCDHGC3 (protocadherin gamma subfamily C, 3) | 1 | 0.164
LLPH (LLP homolog, long-term synaptic facilitation factor) | 1 | 0.461
TRPC6 | 1 | -0.313
CCDC30 (coiled-coil domain containing 30) | 1 | 0.393
KNDC1 (kinase non-catalytic C-lobe domain containing 1) | 1 | -0.0166
PARP8 (poly(ADP-ribose) polymerase family member 8) | 1 | 0.481
NDUFS6 (NADH:ubiquinone oxidoreductase subunit S6) | 1 | 0.16
ABI1 (abl interactor 1) | 1 | 0.254
GRAP (GRB2 related adaptor protein) | 1 | -0.69
HLA-C (major histocompatibility complex, class I, C) | 1 | -0.453
CSMD1 (CUB and Sushi multiple domains 1) | 1 | -0.401
MTRR | 1 | -0.173
KLHL3 (kelch like family member 3) | 1 | -0.411
ANXA7 (annexin A7) | 1 | -0.309
TRIM21 (tripartite motif containing 21) | 1 | 0.382
ANKRD49 (ankyrin repeat domain 49) | 1 | -0.345
DHDH (dihydrodiol dehydrogenase) | 1 | -0.594
ZBTB22 (zinc finger and BTB domain containing 22) | 1 | 0.744
SHANK2 (SH3 and multiple ankyrin repeat domains 2) | 1 | 0.145
RPS14 (ribosomal protein S14) | 1 | -0.465
SND1-IT1 (SND1 intronic transcript 1) | 1 | 0.791
CHD3 (chromodomain helicase DNA binding protein 3) | 1 | 0.382
RALGPS2 (Ral GEF with PH domain and SH3 binding motif 2) | 1 | 0.29
NFE2 (nuclear factor, erythroid 2) | 1 | -0.131
STARD3 (StAR related lipid transfer domain containing 3) | 1 | 0.0151
ZNF117 (zinc finger protein 117) | 1 | 0.281
ZNF117 (zinc finger protein 117) | 2 | -0.424
GATA1 (GATA binding protein 1) | 1 | 0.608
PLXDC1 (plexin domain containing 1) | 1 | -0.0354
H4C4 (H4 clustered histone 4) | 1 | 0.127
NEK3 (NIMA related kinase 3) | 1 | 0.878
TNFSF10 (TNF superfamily member 10) | 1 | 0.661
PPWD1 (peptidylprolyl isomerase domain and WD repeat containing 1) | 1 | -0.287
MRPS35 (mitochondrial ribosomal protein S35) | 1 | -0.772
MYO5C (myosin VC) | 1 | 0.346
ADO (2-aminoethanethiol dioxygenase) | 1 | 0.859

Entries above whose target name starts with A or a:
gene knocked down | pool no. | mean correlation with KSR1 profile
AQP8 (aquaporin 8) | 1 | -0.252
ABI1 (abl interactor 1) | 1 | 0.254
ANXA7 (annexin A7) | 1 | -0.309
ANKRD49 (ankyrin repeat domain 49) | 1 | -0.345
ADO (2-aminoethanethiol dioxygenase) | 1 | 0.859

The list goes on.
gene knocked down | pool no. | mean correlation with KSR1 profile
ALDH4A1 (aldehyde dehydrogenase 4 family member A1) | 1 | 0.192
HADHA | 1 | 0.128
SPEG (striated muscle enriched protein kinase) | 1 | -0.364
SPEG (striated muscle enriched protein kinase) | 1 | 0.246
SMG7 (SMG7 nonsense mediated mRNA decay factor) | 1 | -0.0451
GK2 (glycerol kinase 2) | 1 | 0.497
SLX4 (SLX4 structure-specific endonuclease subunit) | 1 | -0.00863
TNS3 (tensin 3) | 1 | -0.221
CRY2 (cryptochrome circadian regulator 2) | 1 | -0.312
PARS2 (prolyl-tRNA synthetase 2, mitochondrial) | 1 | -0.872
FAM178B (family with sequence similarity 178 member B) | 1 | 0.621
PNLIPRP2 (pancreatic lipase related protein 2 (gene/pseudogene)) | 1 | -0.0746
TBCB (tubulin folding cofactor B) | 1 | -0.193
AMIGO1 (adhesion molecule with Ig like domain 1) | 1 | 0.677
IL27RA (interleukin 27 receptor subunit alpha) | 1 | 0.701
TSPAN3 (tetraspanin 3) | 1 | -0.41
TMUB2 (transmembrane and ubiquitin like domain containing 2) | 1 | -0.498
MANF (mesencephalic astrocyte derived neurotrophic factor) | 1 | -0.406
PPBP (pro-platelet basic protein) | 1 | 0.0837
RAB29 (RAB29, member RAS oncogene family) | 1 | -0.174
COL6A1 (collagen type VI alpha 1 chain) | 1 | 0.361
ST3GAL4 (ST3 beta-galactoside alpha-2,3-sialyltransferase 4) | 1 | 0.504
